Results are given in words; binding and its absence hold for the method and conditions named. Binding seen in cells or lysates may run through a third protein. Some results given as binding are weak or reduced against the parent protein; the word gives no strength. Each block holds one substance with its values, some of them ahead of it.
What was measured:
[1] = target: FLAG-URI alpha (Unconventional prefoldin RPB5 Interactor), stably overexpressed in LNCaP cells (UniProt O94763); experiment: co-IP; nuclear extracts of LNCaP cells stably overexpressing URI; URI precipitated; Western blot for RUVBL1 and RUVBL2
[2] = target: FLAG-URI wild type, transfected in 293 cells (pcDNA3-FLAG-URI) (UniProt O94763); experiment: co-IP; 293 (HEK293) cells transfected with FLAG-URI constructs and RPB5, PDRG1 or HA-Art-27; lysed 48 h later; URI precipitated with FLAG antibodies, Western blot; for RPB5 with or without 25 µM MG132
[3] = target: FLAG-URI alpha (Unconventional prefoldin RPB5 Interactor), stably overexpressed in LNCaP cells (UniProt O94763); experiment: co-IP; lysates of LNCaP-vector and LNCaP-URI stable cells; precipitation with a monoclonal anti-URI antibody, a FLAG antibody or a polyclonal anti-Art-27 antibody; Western blot
[4] = target: androgen receptor trapped clone-27 (Art-27), endogenous in LNCaP cells (human (endogenous in LNCaP)) (UniProt Q9UBK9); experiment: as above
[5] = target: endogenous URI of LNCaP cells (human (endogenous in LNCaP)) (UniProt O94763); experiment: as above

Amino acid sequences for entries named in this document (tags omitted).
UniProt O94763: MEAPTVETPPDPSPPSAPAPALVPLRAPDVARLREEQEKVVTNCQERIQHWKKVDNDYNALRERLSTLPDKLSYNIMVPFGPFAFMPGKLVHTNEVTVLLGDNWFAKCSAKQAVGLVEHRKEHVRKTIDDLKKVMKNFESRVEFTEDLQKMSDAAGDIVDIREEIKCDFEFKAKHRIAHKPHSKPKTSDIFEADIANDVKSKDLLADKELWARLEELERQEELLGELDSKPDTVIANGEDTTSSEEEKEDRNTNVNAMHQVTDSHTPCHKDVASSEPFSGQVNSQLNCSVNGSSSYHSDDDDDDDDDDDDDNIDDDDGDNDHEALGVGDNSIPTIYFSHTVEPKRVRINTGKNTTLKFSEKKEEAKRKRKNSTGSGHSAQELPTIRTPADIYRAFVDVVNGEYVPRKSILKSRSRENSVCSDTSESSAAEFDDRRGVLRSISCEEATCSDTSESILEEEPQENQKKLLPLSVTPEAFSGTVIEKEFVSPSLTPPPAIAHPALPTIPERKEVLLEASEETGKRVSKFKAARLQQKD
UniProt Q9UBK9: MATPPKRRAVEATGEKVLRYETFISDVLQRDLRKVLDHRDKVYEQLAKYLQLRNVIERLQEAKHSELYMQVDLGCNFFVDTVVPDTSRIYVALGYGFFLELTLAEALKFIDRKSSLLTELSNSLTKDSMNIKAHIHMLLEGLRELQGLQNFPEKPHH
UniProt Q9Y265: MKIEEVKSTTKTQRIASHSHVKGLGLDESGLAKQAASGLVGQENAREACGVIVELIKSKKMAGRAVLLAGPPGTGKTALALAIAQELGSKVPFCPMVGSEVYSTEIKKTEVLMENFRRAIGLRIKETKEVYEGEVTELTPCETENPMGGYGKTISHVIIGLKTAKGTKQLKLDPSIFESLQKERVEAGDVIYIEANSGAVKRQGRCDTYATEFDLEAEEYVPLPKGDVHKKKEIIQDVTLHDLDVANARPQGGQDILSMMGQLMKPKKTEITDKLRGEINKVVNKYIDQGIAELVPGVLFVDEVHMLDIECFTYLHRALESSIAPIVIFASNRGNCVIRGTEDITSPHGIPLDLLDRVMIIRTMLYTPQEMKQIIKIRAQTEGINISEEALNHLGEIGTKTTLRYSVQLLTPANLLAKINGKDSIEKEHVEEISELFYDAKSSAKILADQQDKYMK
UniProt Q9NUG6: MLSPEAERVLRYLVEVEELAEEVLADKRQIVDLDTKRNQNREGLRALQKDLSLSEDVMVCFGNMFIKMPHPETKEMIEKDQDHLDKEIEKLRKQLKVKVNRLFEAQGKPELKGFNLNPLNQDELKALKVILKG

- binding [1]: binds
Substance: RUVBL1, endogenous in LNCaP cells (from UniProt Q9Y265 1-456)

- binding [2]: binds
Substance: PDRG1 overexpressed in HEK293 cells (PDRG1 in pCMV6-XL5) (from UniProt Q9NUG6 1-133)

- binding [3]: binds
- binding [4]: binds
- binding [5]: binds
Substance: P53 and DNA damage-Regulated Gene 1 (PDRG1), endogenous in LNCaP cells (from UniProt Q9NUG6 1-133)

From article PMC3648552
